These results are taken from publication PMC8880919.

Sequences of proteins named here, by UniProt entry; tags and fusion partners are left off.
UniProt Q9UUK2: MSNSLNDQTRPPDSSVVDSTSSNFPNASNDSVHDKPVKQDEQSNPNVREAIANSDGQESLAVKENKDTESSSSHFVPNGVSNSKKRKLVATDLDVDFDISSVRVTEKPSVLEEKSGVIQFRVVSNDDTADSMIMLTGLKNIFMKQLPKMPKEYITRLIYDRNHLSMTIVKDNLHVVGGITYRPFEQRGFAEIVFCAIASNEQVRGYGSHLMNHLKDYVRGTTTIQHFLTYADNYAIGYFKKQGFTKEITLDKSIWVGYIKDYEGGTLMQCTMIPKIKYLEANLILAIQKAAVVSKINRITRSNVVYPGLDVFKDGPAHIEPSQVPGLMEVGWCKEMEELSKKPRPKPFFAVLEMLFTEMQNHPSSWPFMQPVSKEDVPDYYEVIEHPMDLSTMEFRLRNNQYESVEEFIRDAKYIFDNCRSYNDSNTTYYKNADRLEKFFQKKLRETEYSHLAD

Results are given in words; binding and its absence hold for the method and conditions named. In cells and extracts the contact can be indirect. Some results given as binding are weak or reduced against the parent protein; the word gives no strength.

Holding throughout (assay): co-IP; protein extracts of wild type S. pombe cells expressing chromosomally tagged proteins; 500 ug protein, IP with anti-MYC or anti-FLAG overnight at 4 C, protein A/G sepharose; lysis buffer PBS pH 7.0, 200 mM NaCl, 0.5 mM EGTA, 0.5 mM EDTA, 0.1% Triton X100; five washes at 220 mM NaCl; blots with anti-HA, anti-FLAG or anti-MYC
In one assay the target is T1, Spt3 (S. pombe) (UniProt O14311).
T1 sequence: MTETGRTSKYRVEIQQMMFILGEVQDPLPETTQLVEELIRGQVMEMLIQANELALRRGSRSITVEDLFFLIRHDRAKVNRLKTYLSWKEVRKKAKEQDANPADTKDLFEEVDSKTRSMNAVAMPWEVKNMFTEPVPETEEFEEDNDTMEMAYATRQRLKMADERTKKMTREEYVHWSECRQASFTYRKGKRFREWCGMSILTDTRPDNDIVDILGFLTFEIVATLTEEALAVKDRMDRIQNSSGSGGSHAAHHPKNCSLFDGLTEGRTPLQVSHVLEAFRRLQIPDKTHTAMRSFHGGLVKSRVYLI

The next assay concerns the target T2, Ubp8 (S. pombe) (UniProt Q09738).
T2 sequence: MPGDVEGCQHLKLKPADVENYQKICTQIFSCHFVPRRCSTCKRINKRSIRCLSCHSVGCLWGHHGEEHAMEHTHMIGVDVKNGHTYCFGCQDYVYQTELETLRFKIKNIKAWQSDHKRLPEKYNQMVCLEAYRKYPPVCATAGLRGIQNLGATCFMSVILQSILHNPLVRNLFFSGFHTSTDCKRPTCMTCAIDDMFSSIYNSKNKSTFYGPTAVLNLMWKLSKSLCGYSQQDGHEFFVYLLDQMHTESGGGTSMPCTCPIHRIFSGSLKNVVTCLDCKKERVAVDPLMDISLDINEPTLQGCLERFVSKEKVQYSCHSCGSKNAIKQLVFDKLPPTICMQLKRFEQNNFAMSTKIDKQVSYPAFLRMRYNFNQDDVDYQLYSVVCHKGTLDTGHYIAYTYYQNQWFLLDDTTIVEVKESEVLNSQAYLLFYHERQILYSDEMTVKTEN

In a further assay the target is T3, Set1 (S. pombe) (UniProt Q9Y7R4).
T3 sequence: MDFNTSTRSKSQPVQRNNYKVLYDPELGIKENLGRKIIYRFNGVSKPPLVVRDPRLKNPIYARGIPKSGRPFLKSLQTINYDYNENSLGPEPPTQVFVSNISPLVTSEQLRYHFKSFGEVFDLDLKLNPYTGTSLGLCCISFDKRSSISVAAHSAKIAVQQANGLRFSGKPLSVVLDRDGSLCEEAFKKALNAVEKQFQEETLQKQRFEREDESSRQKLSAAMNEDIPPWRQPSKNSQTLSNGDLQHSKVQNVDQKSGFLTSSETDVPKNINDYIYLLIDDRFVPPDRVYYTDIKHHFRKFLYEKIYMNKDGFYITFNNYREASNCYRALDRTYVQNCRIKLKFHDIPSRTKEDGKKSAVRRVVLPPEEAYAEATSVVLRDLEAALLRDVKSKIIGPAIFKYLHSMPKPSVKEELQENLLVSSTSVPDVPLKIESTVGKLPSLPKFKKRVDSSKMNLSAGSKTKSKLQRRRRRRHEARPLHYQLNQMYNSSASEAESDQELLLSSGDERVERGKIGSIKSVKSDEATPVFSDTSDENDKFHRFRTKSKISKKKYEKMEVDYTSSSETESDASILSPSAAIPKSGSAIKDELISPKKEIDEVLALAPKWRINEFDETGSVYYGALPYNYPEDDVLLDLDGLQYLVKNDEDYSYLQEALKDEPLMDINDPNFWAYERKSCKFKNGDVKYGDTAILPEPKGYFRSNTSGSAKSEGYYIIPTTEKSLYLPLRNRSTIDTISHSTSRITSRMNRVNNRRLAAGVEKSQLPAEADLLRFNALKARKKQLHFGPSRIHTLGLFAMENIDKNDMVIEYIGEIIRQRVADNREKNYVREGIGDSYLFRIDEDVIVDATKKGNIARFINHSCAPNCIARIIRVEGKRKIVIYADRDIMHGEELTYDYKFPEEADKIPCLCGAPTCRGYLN

The target in the next assay is Gcn5 (S. pombe) (UniProt Q9UUK2).

B1: Gad8 (protein, UniProt Q9P7J8 1-569)
chain: MSWKLTKKLKETHLASAIGLNSGGSSFTRGLKNSTLSSTSSRKSSDEKSRKSSEDKRSPQSTVVQPGLLQVTIIEARNLKLPSGHVPANYGVSIDNSLLAPPLSNGSGHARSRSHAWWLPYIVVEFDKNEILVDALNTASLENPCWDYQATFDVSRYSKLSLNIYLRSSSSRSRNGMGNDAFLGGIKLSPSFIVNKLTDEWVPLHGGSGELRVQMLYKPNQSTPLTIDAFELLKVVGKGSFGKVMQVRKRDTSRIYALKTMKKAHIVSRSEVDHTLAERTVLAQVNNPFIVPLKFSFQSPGKLYLVLAFVNGGELFHHLQREGCFDTYRAKFYIAELLVALECLHEFNVIYRDLKPENILLDYTGHIALCDFGLCKLNMAKTDRTNTFCGTPEYLAPELLLGHGYTKVVDWWTLGVLLYEMITGLPPFYDENINEMYRKILQDPLRFPDNIDEKAKDLLSGLLTRAPEKRLGSGGAQEIKNHPFFDDIDWKKLCAKKIQPPFKPSVESAIDTSNFDSEFTSEIPMDSVVADSHLSETVQQRFANWSYQRPTTIDTSDDINTIAPGSVIR
On to B1, for which the binding result is given as “binds” with Spt3 (S. pombe), “binds” with Ubp8 (S. pombe), “no binding” with Set1 (S. pombe) and “binds” with Gcn5 (S. pombe).
